Experimental data from PubChem BioAssay AID493014 (National Center for Advancing Translational Sciences (NCATS), 2011).
In all, about 340,000 compounds went through this assay and about 170 (0.05%) were called active. The shares of active, inactive and inconclusive entries below differ from those in the screen. Calls come from the whole dose curve; as a rule, active = well fitted inhibition curve with a large enough effect in the signal ratio, with a control signal flat (not every such curve was filed as active); inconclusive = small, poorly fitted or top-dose-only effect, or effect the other way, or a change in a side signal; inactive = flat fitted curve, though single readings scatter; the % refers to the signal ratio. Potencies of inconclusive entries are doubtful fits and often do not repeat.

Assay: qHTS Assay to Find Inhibitors of Chronic Active B-Cell Receptor Signaling;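 for activity change, negative = inhibition: plate controls were basal doxycycline-induced cells for no effect and cells given 10 µM MG132 for full effect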
Settings: ABC-DLBCL IkBa-CBG/CBR reporter, luminescence ratio (green luciferase fused to IkBa over red control in TMD8 lymphoma cells), 4 h; activity change, negative = inhibition: at 46.1 µM (top of the series) unless noted
Procedure, shortened: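 TMD8 ABC-DLBCL cells carrying doxycycline-inducible green luciferase fused to IkappaBalpha plus unfused red luciferase were exposed to compounds (up to 46 uM) for 4 hrs at 37C. Activity came from the overlap-corrected green/red luminescence ratio.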
Potency is the fitted concentration of half-maximal effect.

Compound	activity change, negative = inhibition	Potency
COc1cc2c(cc1NC(=O)c1cc(-c3cccnc3)nc3ccc(C)cc13)oc1ccccc12	inactive: 2.14%	
CC1CC(C)CN(CCCNC(=O)CN2C(=O)CSc3ccc(S(=O)(=O)N4CCCCC4)cc32)C1 (centres undefined)	inactive: -0.968%	
COc1ccc2nc(NC(=O)c3cc(C)oc3C)sc2c1		inconclusive: 3.26 µM [falling, partial curve, poor fit]
N#Cc1c(N)nc2c(c1-c1ccc3c(c1)OCO3)CCc1ccccc1-2		inconclusive: 0.92 µM [rising, partial curve]
CCOc1ccc(-c2[nH]nc3c2C(c2cccnc2)C(C#N)=C(N)O3)cc1 (centres undefined)		inconclusive: 3.66 µM [falling, full curve]
CCc1c(C#N)c(SCc2c(C)noc2C)nc2c1C(=O)CC(C)(C)C2	inactive: 4.18%	
COc1cccc(/C=N/N2CCN(c3ccncc3S(=O)(=O)N3CCCCC3)CC2)c1	inconclusive: -9.72%	
COCCNC(=O)c1ccc2c3n(nc2c1)-c1ccccc1CO3		inconclusive: 22.4 µM [falling, single point]
CCOC(=O)C1C(=O)CC(C)(O)C(C(=O)OCC)C1c1ccco1 (centres undefined)	inconclusive: 4.22%	
O=C(CCn1c(=O)sc2ccccc21)Nc1nccs1		inconclusive: 2.91 µM [rising, partial curve, poor fit]
S=C(NCCc1ccccc1)NCc1cccc(Cl)c1	inconclusive: 3.57%	
CC(C)c1ccc(/C=C/C(=O)NC(=S)NN2CCOCC2)cc1		inconclusive: 35.5 µM [falling, partial curve, poor fit]
O=C(O)CCn1cc(/C=C/C(=O)c2ccc(Cl)cc2)c(-c2ccc(Br)cc2)n1	inconclusive: 6.48%	
C(=N\Nc1nc(-c2ccccc2)cs1)/c1cccs1	inconclusive: 150%	
O=C(NCCCn1ccnc1)c1ccc(Cl)c(Cl)c1	inconclusive: 2.94%	
COc1ccccc1C(c1c(N)n(C)c(=O)n(C)c1=O)C(C)[N+](=O)[O-] (centres undefined)	inconclusive: -15.6%	
N#CC1=C(SCC(=O)c2ccccc2)NC2=C(C(=O)CCC2)C1c1ccco1 (centres undefined)		inconclusive: 28.2 µM [falling, single point]
Cc1cc(Oc2ccccc2)nc(-c2ccccc2O)n1	inactive: 3.24%	
CCOCCn1ccc2c(OCC(=O)Nc3ccc(OC(F)(F)F)cc3)cccc2c1=O	inconclusive: 7.04%	
CCCN(CCC)C(=O)C1CC(=O)OC12CCCCC2 (centres undefined)	inconclusive: 3.78%	
COc1ccc(CCNC(=O)C/C(C)=N/NC(=O)c2ccc(N)cc2)cc1OC		inconclusive: 8.2 µM [falling, partial curve]
O=C(CSc1nnc(-c2cccnc2)o1)Nc1cccc(F)c1	inactive: 5.62%	
CC(=O)C1=C(O)C(=O)N(Cc2ccco2)C1c1ccccc1F (centres undefined)	inactive: 8.72%	
O=C(NC(=S)Nc1ccc(Br)cc1)C1CCC1	inconclusive: 0.118%	
Cc1cc(C)c2c3c(sc2n1)C(=O)N(Cc1ccccc1)CC(=O)N3	inconclusive: 17.5%	
CC(C)Cc1nnc(NC(=O)CCC(=O)Nc2ccc3cn[nH]c3c2)s1		inconclusive: 17.8 µM [falling, single point]
Nc1nc(-c2cccnc2)nn1C(=O)c1ccc(Cl)cc1	inconclusive: 4.8%	

Compound	activity change, negative = inhibition	Potency
CSc1nc(-c2ccc(C)cc2)nc(N)c1C#N	inconclusive: 23.8%	
CN1CCN(c2ccc(NC(=O)c3ccc(C#N)cc3F)cc2Cl)CC1	inactive: -7.79%	
O=C(COc1ccc2c(c1)CCC2)Nc1ccccn1		inconclusive: 4.61 µM [falling, single point]
C=CCc1ccc(OCCOc2cccc3ccc(C)nc23)c(OC)c1		inconclusive: 35.5 µM [falling, single point]
CC(C)OCCCN1CN(S(=O)(=O)c2cccs2)c2nc3ccccc3nc21		inconclusive: 8.91 µM [rising, partial curve, poor fit]
COc1ccccc1C(=O)NC(=O)CSc1nc(C)cs1	inactive: 5.79%	
COc1ccc(NC(=S)N(CCc2c(C)[nH]c3ccc(C)cc23)Cc2ccco2)cc1		inconclusive: 20.6 µM [falling, partial curve, poor fit]
CCOC(=O)CCC(=O)c1c(C)oc2ccc(OC)cc12		inconclusive: 2.91 µM [rising, full curve]
COc1ccc(NC(=O)C2CCC2)cc1S(=O)(=O)Nc1cc(C)ccc1Br	inconclusive: -20.4%	
Cc1ccc(CN(C)C(=O)c2ccccc2Oc2ccccc2)o1	inconclusive: -2.59%	
CCOc1ccc(N2C(=O)c3ccc(C(=O)OCC(=O)N(CC)C4CCS(=O)(=O)C4)cc3C2=O)cc1 (centres undefined)		inconclusive: 10 µM [falling, partial curve]
CSc1nnnn1-c1ccc(C)c(Cl)c1	inconclusive: -1.68%	
O=C(N/N=C/c1ccc(Br)cc1)c1ccc(F)cc1		inconclusive: 18.4 µM [falling, partial curve]
Cc1oc(-c2ccccc2)cc1C(=O)NC(Cc1c[nH]c2ccccc12)C(=O)O (centres undefined)		inconclusive: 0.0291 µM [rising, full curve]
CN(Cc1ccccc1C#N)S(=O)(=O)c1cccs1	inactive: 1.5%	
Cc1ccc(CC2CC(=O)N(c3ccc(C)cc3)C2=O)cc1 (centres undefined)	inconclusive: 5.1%	
CSc1cccc(NC(=O)C2C3C=CC4(O3)C2C(=O)N(CCN2CCOCC2)C4C(=O)NC2CCCCC2)c1 (centres undefined)	inactive: 1.93%	
Cc1cccc(NC(=O)c2cc(NC(=O)c3ccco3)ccc2N2CCCCC2)c1	inconclusive: -16.7%	
CCOc1cc(CNCCO)cc(Br)c1OCc1ccccc1Cl	inconclusive: -1.03%	
COc1ccc(N2C(=O)CC(Cc3ccccc3)C2=O)cc1 (centres undefined)	inactive: 3.16%	
COc1ccc(S(=O)(=O)N2CCOCC2)cc1NC(=O)Cc1coc2cc(C)c(C)cc12	inactive: -0.275%	
Cc1nc2c(n1C1CCCCC1)C(=O)c1ccccc1C2=O		inconclusive: 6.31 µM [falling, single point]
O=C1/C(=C/c2cccs2)CCC1C1CCCC1 (centres undefined)		inconclusive: 1.41 µM [rising, full curve, poor fit]
O=c1cc(-c2ccc(O)cc2)oc2cc(O)c(C3OC(CO)C(O)C(O)C3O)c(O)c12 (centres undefined)		inconclusive: 8.91 µM [rising, partial curve, poor fit]
O=C(COc1nc2ccccc2nc1N1CCOCC1)Nc1cccc(S(=O)(=O)N2CCCCC2)c1		inconclusive: 7.31 µM [falling, full curve, poor fit]
COc1ccc(/C=C/C(=O)c2ccc3c(c2)OCO3)c(OC)c1		inconclusive: 16.4 µM [falling, partial curve, poor fit]
O=C(COC(=O)c1ccccc1Br)Nc1cccnc1Cl		inconclusive: 3.26 µM [falling, partial curve, poor fit]

Compound	activity change, negative = inhibition	Potency
CC1CCN(Cc2nc3c(c(=O)n(C)c(=O)n3C)n2CCCc2ccccc2)CC1	inactive: 1.43%	
CN(Cc1ccccc1)Cc1nc2scc(-c3ccccc3)c2c(=O)[nH]1	inconclusive: 1.58%	
O=S(=O)(c1ccc(Nc2ccc(-c3ccc4c(c3)OCCO4)nn2)cc1)N1CCCC1		inconclusive: 23.1 µM [falling, single point]
COCCn1c(SCC(=O)Nc2nc(C)cs2)nnc1C(C)C	inconclusive: 6.45%	
COc1ccc2cc(/C=C3\SC(=S)NC3=O)c(N3CCOCC3)nc2c1	inconclusive: 8.58%	
CC(=O)Nc1ccc(S(=O)(=O)N2CCCc3ccccc32)cc1	inactive: 0.488%	
Cc1ccc(S(=O)(=O)Nc2cccc(-c3ccc4nncn4n3)c2)cc1		inconclusive: 18.4 µM [falling, single point]
CC1NC(=S)N(Cc2ccccc2)C1=O (centres undefined)		inconclusive: 35.5 µM [falling, single point]
Cc1cc(C)c2c(CN3CCCCC3C)cc(=O)oc2c1 (centres undefined)	inconclusive: -0.658%	
C=CCSc1nc(-c2ccc(OC)cc2)c(C#N)c(=O)n1CC=C	inactive: -3.55%	
COc1cc(/C=C(\C#N)C(=O)Nc2ccc(C(=O)O)cc2)ccc1OC(=O)c1cccc(F)c1		inconclusive: 35.5 µM [rising, partial curve]
COc1ccccc1C(C)NC(=O)c1ccc(C)o1 (centres undefined)	inconclusive: -19.8%	
CCC(=O)Nc1c(S(=O)(=O)c2ccccc2)c2nc3ccccc3nc2n1Cc1ccccc1	inconclusive: 16.7%	
CC(C)c1ccc(-c2cc(C(=O)N3N=C(C(F)F)CC3(O)C(F)F)c3ccccc3n2)cc1 (centres undefined)	inconclusive: 6.24%	
O=C(C(=O)N1CCN(c2ccccc2Cl)CC1)c1c[nH]c2ccccc12	inconclusive: -16.4%	
O=C(CSc1nc2ccccc2c(=O)n1-c1ccccc1)N1CCN(CCO)CC1	inconclusive: 0.647%	
O=C1C(Cc2ccc(F)cc2)SC(=Nc2ccccc2)N1c1ccccc1 (centres undefined)	inactive: 12%	
CC(C)NC(=O)/C(C#N)=C\c1ccc(N(C)C)c(Br)c1		inconclusive: 31.6 µM [falling, single point]
O=C(OCN1C(=O)c2ccccc2C1=O)c1cccnc1SC(F)F	inactive: -0.0072%	
COc1ccc(OCCN(C)C(=O)c2cccc(S(=O)(=O)N(C)c3ccccc3)c2)cc1	inconclusive: 7.69%	
CCOC(=O)c1oc2ccc(/C=N/O)c(Cl)c2c1C	inconclusive: 0.105%	
CCOc1cc(S(=O)(=O)NCCCn2ccnc2)ccc1Cl	inactive: 4.37%	
O=C(N/N=C/c1ccc([N+](=O)[O-])cc1)c1cccc(N2CCCC2=O)c1	inactive: -13.1%	
COc1ccc(-c2nn(CCC#N)cc2/C=N/O)cc1OC	inconclusive: -0.51%	
CC1C(=O)C(C)C(c2ccc(Br)cc2)NC1c1ccc(Br)cc1 (centres undefined)	inconclusive: 9.18%	

In a second layout: results already given.
CC(C)c1ccc(-c2cc(C(=O)N3N=C(C(F)F)CC3(O)C(F)F)c3ccccc3n2)cc1 (centres undefined)
  activity change, negative = inhibition: inconclusive: 6.24%
O=C(C(=O)N1CCN(c2ccccc2Cl)CC1)c1c[nH]c2ccccc12
  activity change, negative = inhibition: inconclusive: -16.4%
O=C(CSc1nc2ccccc2c(=O)n1-c1ccccc1)N1CCN(CCO)CC1
  activity change, negative = inhibition: inconclusive: 0.647%
